No constants are given. Whether binding was seen depends on the method and setting. In cells and extracts the contact can be indirect. Some results given as binding are weak or reduced against the parent protein; the word gives no strength.

Protein sequences, listed by entry. Tags and fused reporters are not part of them. Residues count along the entry.
UniProt Q04206: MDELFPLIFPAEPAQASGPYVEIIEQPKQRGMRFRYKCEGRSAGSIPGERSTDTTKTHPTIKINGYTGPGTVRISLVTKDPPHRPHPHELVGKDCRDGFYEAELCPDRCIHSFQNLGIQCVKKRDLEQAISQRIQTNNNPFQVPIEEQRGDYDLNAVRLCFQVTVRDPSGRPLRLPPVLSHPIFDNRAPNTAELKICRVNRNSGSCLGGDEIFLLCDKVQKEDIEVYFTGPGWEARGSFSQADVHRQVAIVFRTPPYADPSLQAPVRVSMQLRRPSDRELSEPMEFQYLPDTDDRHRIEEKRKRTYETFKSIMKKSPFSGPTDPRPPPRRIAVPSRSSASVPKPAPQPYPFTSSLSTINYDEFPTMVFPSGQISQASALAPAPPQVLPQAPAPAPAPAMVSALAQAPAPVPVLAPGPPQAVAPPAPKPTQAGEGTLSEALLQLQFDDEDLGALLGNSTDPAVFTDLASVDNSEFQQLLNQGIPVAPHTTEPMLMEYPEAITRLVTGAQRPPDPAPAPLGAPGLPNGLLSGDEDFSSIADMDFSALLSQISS
UniProt P19838, residues 1-433: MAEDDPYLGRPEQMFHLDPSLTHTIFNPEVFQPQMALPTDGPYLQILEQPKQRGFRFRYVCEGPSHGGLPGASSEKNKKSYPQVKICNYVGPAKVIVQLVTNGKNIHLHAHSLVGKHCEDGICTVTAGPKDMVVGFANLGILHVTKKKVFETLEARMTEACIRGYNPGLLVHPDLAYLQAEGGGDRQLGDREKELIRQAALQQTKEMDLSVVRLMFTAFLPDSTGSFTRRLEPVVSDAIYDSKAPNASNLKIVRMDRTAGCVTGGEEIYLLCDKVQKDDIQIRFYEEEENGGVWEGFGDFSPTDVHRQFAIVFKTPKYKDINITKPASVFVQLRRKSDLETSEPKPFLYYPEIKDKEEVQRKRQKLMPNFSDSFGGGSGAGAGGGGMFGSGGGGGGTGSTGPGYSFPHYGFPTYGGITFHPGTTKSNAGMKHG
UniProt P19532: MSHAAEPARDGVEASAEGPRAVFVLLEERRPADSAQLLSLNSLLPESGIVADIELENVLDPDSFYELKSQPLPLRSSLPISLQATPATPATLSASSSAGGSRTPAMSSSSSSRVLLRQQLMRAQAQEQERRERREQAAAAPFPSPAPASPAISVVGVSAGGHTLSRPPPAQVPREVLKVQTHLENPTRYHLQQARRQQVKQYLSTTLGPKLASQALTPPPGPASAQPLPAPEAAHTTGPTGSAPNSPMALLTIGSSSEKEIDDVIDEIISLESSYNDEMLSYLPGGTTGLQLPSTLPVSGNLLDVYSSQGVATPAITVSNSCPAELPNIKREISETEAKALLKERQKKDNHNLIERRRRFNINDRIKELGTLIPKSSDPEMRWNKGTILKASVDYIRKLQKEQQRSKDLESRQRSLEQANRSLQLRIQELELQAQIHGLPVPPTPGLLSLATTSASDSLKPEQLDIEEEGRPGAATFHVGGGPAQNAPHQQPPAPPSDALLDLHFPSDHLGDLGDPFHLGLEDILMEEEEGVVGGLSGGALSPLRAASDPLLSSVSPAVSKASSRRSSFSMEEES

Assay [1] addresses p65/RELA (endogenous) (human (endogenous in HeLa)) (UniProt Q04206). Nature of the assay: co-IP; 500 µg whole-cell extract (Triton lysis buffer), 1 µg anti-NF-κB p65 (sc-8008) or mouse IgG on TrueBlot anti-mouse Ig agarose beads, overnight at 4 °C, Western blot; endogenous proteins.
Assay [2] has the same target. The assay is described as follows: proximity ligation; Immuno-PLA on endogenous proteins in fixed, permeabilised HeLa cells, parental against Δp65; goat anti-p65 with rabbit antibody against the partner; PLA spots per cell.

Turning to p50 (NFKB1) (from UniProt P19838 1-433), the binding result in assay [1] is reported as “binds”. Regarding “transcription factor E3 (TFE3) (from UniProt P19532 1-575)”, the binding result in assay [2] and in assay [1] was “binds” in each case.

B1: zinc finger and BTB domain containing 5 (ZBTB5) (protein, UniProt O15062 1-677)
chain: MDFPGHFEQIFQQLNYQRLHGQLCDCVIVVGNRHFKAHRSVLAACSTHFRALFSVAEGDQTMNMIQLDSEVVTAEAFAALIDMMYTSTLMLGESNVMDVLLAASHLHLNSVVKACKHYLTTRTLPMSPPSERVQEQSARMQRSFMLQQLGLSIVSSALNSSQNGEEQPAPMSSSMRSNLDQRTPFPMRRLHKRKQSAEERARQRLRPSIDESAISDVTPENGPSGVHSREEFFSPDSLKIVDNPKADGMTDNQEDSAIMFDQSFGTQEDAQVPSQSDNSAGNMAQLSMASRATQVETSFDQEAAPEKSSFQCENPEVGLGEKEHMRVVVKSEPLSSPEPQDEVSDVTSQAEGSESVEVEGVVVSAEKIDLSPESSDRSFSDPQSSTDRVGDIHILEVTNNLEHKSTFSISNFLNKSRGNNFTANQNNDDNIPNTTSDCRLESEAPYLLSPEAGPAGGPSSAPGSHVENPFSEPADSHFVRPMQEVMGLPCVQTSGYQGGEQFGMDFSRSGLGLHSSFSRVMIGSPRGGASNFPYYRRIAPKMPVVTSVRSSQIPENSTSSQLMMNGATSSFENGHPSQPGPPQLTRASADVLSKCKKALSEHNVLVVEGARKYACKICCKTFLTLTDCKKHIRVHTGEKPYACLKCGKRFSQSSHLYKHSKTTCLRWQSSNLPSTLL
B1: the binding entry in assay [2] is recorded as “binds”.

B2: Zinc finger protein GLI-similar 2 (GLIS2) (protein, UniProt Q9BZE0 1-524)
chain: MHSLDEPLDLKLSITKLRAAREKRERTLGVVRPRALHRELGLVDDSPTPGSPGSPPSGFLLNSKFPEKVEGRFSAAPLVDLSLSPPSGLDSPNGSSSLSPERQGNGDLPPVPSASDFQPLRYLDGVPSSFQFFLPLGSGGALHLPASSFLTPPKDKCLSPDLPLPKQLVCRWAKCNQLFELLQDLVDHVNDYHVKPEKDAGYCCHWEGCARHGRGFNARYKMLIHIRTHTNEKPHRCPTCSKSFSRLENLKIHNRSHTGEKPYVCPYEGCNKRYSNSSDRFKHTRTHYVDKPYYCKMPGCHKRYTDPSSLRKHIKAHGHFVSHEQQELLQLRPPPKPPLPAPDGGPYVSGAQIIIPNPAALFGGPGLPGLPLPLAPGPLDLSALACGNGGGSGGGGGMGPGLPGPVLPLNLAKNPLLPSPFGAGGLGLPVVSLLAGAAGGKAEGEKGRGSVPTRALGMEGHKTPLERTESSCSRPSPDGLPLLPGTVLDLSTGVNSAASSPEALAPGWVVIPPGSVLLKPAVVN
With B2, in assay [2], the binding entry is “binds”.

Values taken from PMC11850942.
